This assay addresses T1, Flag-tagged ZNRF1 (zinc and ring finger 1), full length (mouse) (UniProt Q91V17).
T1 sequence: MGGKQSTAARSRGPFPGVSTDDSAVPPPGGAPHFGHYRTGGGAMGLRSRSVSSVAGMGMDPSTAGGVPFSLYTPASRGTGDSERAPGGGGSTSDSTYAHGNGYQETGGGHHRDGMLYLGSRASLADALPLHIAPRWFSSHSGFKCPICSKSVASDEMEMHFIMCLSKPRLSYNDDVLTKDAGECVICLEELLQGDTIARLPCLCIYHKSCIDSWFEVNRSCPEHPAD
Put plainly: co-IP; HEK293T cells co-transfected with V5-tagged CAV1 and Flag-tagged ZNRF1 (full length or truncated); lysis in 150 mM NaCl, 20 mM Tris-HCl pH 7.4, 0.5% Triton X-100; immunoprecipitation at 4 °C and immunoblotting. On the technique in general: A western blot detects proteins with antibodies after separation by electrophoresis.

No constants are given. Whether binding was seen depends on the method and setting. Binding seen in cells or lysates may run through a third protein. Binding can be weak; no strength is given. Tags and fused reporters may be left off the sequences shown.

The values that follow come from paper PMC5472178.

On to “CAV1(ΔNC), V5-tagged (mouse) (domain or fragment)”, for which the binding entry was “binds”.
